The list shows a part of the results.
Key:
Experiment in all cases: log2 fold change, soluble protein after heating vs DMSO (PISA); higher = thermal stabilisation; K562 cells, 10 uM, 30 min; active = over 0.2 and 3.5 SD of the protein, either way, in both replicates (recomputed)
[1] = compound: NC(=O)Nc1cc(-c2cccc(F)c2)sc1C(=O)N[C@H]1CCCNC1
Method in brief: (§1)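 K562 cells at 2×10^6 cells/mL were treated for 30 min with 10 μM compound, and aliquots were heated for 3 min over 48°C-58°C before pooling. Extraction used PBS with 0.5% NP-40 at 4°C, and soluble protein was the supernatant after 21,000xg for 90 min, measured by TMTpro 16plex LC-MS/MS with channel sums equalised. Thermal stability values, relative to control samples and from duplicates, are log2 fold changes.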

[2] = compound: NC(=O)c1cnc(N[C@@H]2CCCC[C@@H]2N)nc1Nc1cccc(-n2nccn2)c1
Method in brief: as §1

[3] = compound: NC1(c2ccc(-c3nc4ccn5c(=O)[nH]nc5c4cc3-c3ccccc3)cc2)CCC1
Method in brief: as §1

[4] = compound: NCC(=O)Nc1ccc(-n2nc(C(F)(F)F)cc2-c2ccc3c(ccc4ccccc43)c2)cc1
Method in brief: as §1

entinostat = compound: Nc1ccccc1NC(=O)c1ccc(CNC(=O)OCc2cccnc2)cc1 [entinostat]
Method in brief: as §1

citarinostat = compound: O=C(CCCCCCNC(=O)c1cnc(N(c2ccccc2)c2ccccc2Cl)nc1)NO [citarinostat]
Method in brief: as §1

silmitasertib = compound: O=C(O)c1ccc2c(c1)nc(Nc1cccc(Cl)c1)c1ccncc12 [silmitasertib]
Method in brief: as §1

[5] = compound: O=C1NC(=O)C(c2cnc3ccccn23)=C1c1cn2c3c(cc(F)cc13)CN(C(=O)N1CCCCC1)CC2
Method in brief: as §1

[6] = compound: c1cc(OCCN2CCCCC2)cc(-c2n[nH]c3ccc(-c4nnc[nH]4)cc23)c1
Method in brief: as §1

vorinostat = compound: O=C(CCCCCCC(=O)Nc1ccccc1)NO [vorinostat]
Method in brief: as §1

Measured: log2 fold change

UCHL5 isoform 3 (UniProt Q9Y5K5)
inactive: [1] 0.037 | [2] 0.156 | [3] -0.277 | [4] 0.05 | entinostat 0.098 | citarinostat 0.113 | silmitasertib -0.002 | [5] -0.054 | [6] -0.028

USP30 (UniProt Q70CQ3)
inactive: [1] -0.154 | [2] 0.09 | [3] 0.076 | [4] -0.359 | entinostat 0.016 | citarinostat -0.03 | silmitasertib 0.233 | [5] 0.124 | [6] -0.148

UNG (UniProt P13051)
inactive: [1] -0.007 | [2] -0.043 | [3] -0.106 | [4] -0.222 | entinostat 0.053 | vorinostat 0.079 | silmitasertib 0.102 | [5] -0.02

UFM1 (UniProt P61960)
inactive: [1] 0.045 | [2] -0.135 | [3] -0.073 | [4] -0.056 | entinostat 0.004 | citarinostat 0.056 | silmitasertib -0.033 | [5] -0.083 | [6] 0.015

UBE4A isoform 2 (UniProt Q14139)
inactive: [1] -0.017 | [2] 0.01 | [3] -0.136 | [4] 0.001 | entinostat 0.146 | vorinostat 0.133 | citarinostat 0.059 | silmitasertib 0.117 | [5] 0.026 | [6] -0.014

UQCRB (UniProt P14927)
inactive: [1] -0.016 | [2] -0.036 | [3] 0.015 | [4] 0.026 | entinostat -0.032 | vorinostat -0.046 | citarinostat 0.042 | silmitasertib -0.02 | [5] -0.006 | [6] -0.032

UQCC1 (UniProt Q9NVA1)
inactive: [1] -0.021 | [2] 0.02 | [3] 0.003 | [4] 0.031 | entinostat -0.011 | vorinostat 0.002 | citarinostat 0.021 | silmitasertib 0.012 | [5] -0.002 | [6] 0.006

USP34 (UniProt Q70CQ2)
inactive: [1] 0.012 | [2] -0.08 | [3] -0.131 | [4] -0.02 | entinostat 0.024 | vorinostat 0.118 | citarinostat 0.123 | silmitasertib 0.045 | [5] -0.008 | [6] -0.074

USP22 (UniProt Q9UPT9)
inactive: [1] -0.059 | [2] -0.121 | [3] -0.075 | [4] -0.103 | entinostat -0.01 | citarinostat 0.042 | silmitasertib -0.061 | [5] -0.124 | [6] -0.022

UQCRC1 (UniProt P31930)
inactive: [1] 0.008 | [2] 0.03 | [3] 0.033 | [4] 0.018 | entinostat 0.005 | vorinostat -0.041 | citarinostat -0.008 | silmitasertib -0.01 | [5] -0.071 | [6] -0.008

VAMP7 (UniProt P51809)
inactive: [1] -0.029 | [2] 0.001 | [3] -0.176 | [4] -0.069 | entinostat 0.009 | vorinostat 0.025 | citarinostat 0.086 | silmitasertib 0.027 | [5] -0.058 | [6] 0.026

URM1 isoform 2 (UniProt Q9BTM9)
inactive: [1] 0.017 | [2] -0.005 | [3] -0.069 | [4] -0.099 | entinostat -0.006 | vorinostat 0.163 | citarinostat -0.025 | silmitasertib -0.077 | [6] -0.05

UVRAG (UniProt Q9P2Y5)
inactive: [1] -0.015 | [2] 0.051 | [3] -0.017 | [4] 0.208 | entinostat -0.02 | vorinostat -0.004 | citarinostat -0.008 | silmitasertib 0.042 | [5] 0.021 | [6] -0.017

USP13 (UniProt Q92995)
inactive: [1] -0.254 | [2] 0.139 | [3] 0.01 | [4] 0.063 | entinostat -0.087 | citarinostat 0.077 | silmitasertib 0.018 | [6] 0.042

USO1 isoform 2 (UniProt O60763)
inactive: [1] -0.009 | [2] 0 | [3] -0.101 | [4] -0.024 | entinostat 0.032 | vorinostat 0.018 | citarinostat 0.032 | silmitasertib 0.059 | [5] -0.035 | [6] -0.013

VCPIP1 (UniProt Q96JH7)
inactive: [1] 0.466 | [4] 0.06 | entinostat 0.108 | vorinostat -0.132 | [5] 0.259

UNC13A (UniProt Q9UPW8)
inactive: [1] 0.102 | entinostat 0.023

UBQLN3 (UniProt Q9H347)
inactive: [2] -0.09 | [3] -0.293 | [4] -0.086 | vorinostat -0.067 | citarinostat 0.028 | silmitasertib -0.169 | [5] 0.016 | [6] -0.033

UNC5B (UniProt Q8IZJ1)
inactive: [4] 0.045 | [5] 0.207

VAV1 (UniProt P15498)
inactive: [2] -0.153 | [3] -0.249 | [4] -0.009 | vorinostat 0.191 | silmitasertib 0.039 | [5] 0.077

Taken from the entries so far (five entries):
UVRAG (UniProt Q9P2Y5)
inactive: [1] -0.015 | [2] 0.051 | [3] -0.017 | [4] 0.208 | entinostat -0.02 | vorinostat -0.004 | citarinostat -0.008 | silmitasertib 0.042 | [5] 0.021 | [6] -0.017

USP13 (UniProt Q92995)
inactive: [1] -0.254 | [2] 0.139 | [3] 0.01 | [4] 0.063 | entinostat -0.087 | citarinostat 0.077 | silmitasertib 0.018 | [6] 0.042

USO1 isoform 2 (UniProt O60763)
inactive: [1] -0.009 | [2] 0 | [3] -0.101 | [4] -0.024 | entinostat 0.032 | vorinostat 0.018 | citarinostat 0.032 | silmitasertib 0.059 | [5] -0.035 | [6] -0.013

VCPIP1 (UniProt Q96JH7)
inactive: [1] 0.466 | [4] 0.06 | entinostat 0.108 | vorinostat -0.132 | [5] 0.259

UNC13A (UniProt Q9UPW8)
inactive: [1] 0.102 | entinostat 0.023
